This assay concerns the target Yes-associated protein (human (endogenous in N/TERT)) (UniProt P46937). Nature of the assay: co-IP; freshly confluent N/TERT cell lysates; IP with anti-p-YAP or anti-YAP antibody, blot for Dsg3; control beads alone; input 7~8%.

The chains behind the UniProt entries cited, without tags or fusion partners.
UniProt P46937: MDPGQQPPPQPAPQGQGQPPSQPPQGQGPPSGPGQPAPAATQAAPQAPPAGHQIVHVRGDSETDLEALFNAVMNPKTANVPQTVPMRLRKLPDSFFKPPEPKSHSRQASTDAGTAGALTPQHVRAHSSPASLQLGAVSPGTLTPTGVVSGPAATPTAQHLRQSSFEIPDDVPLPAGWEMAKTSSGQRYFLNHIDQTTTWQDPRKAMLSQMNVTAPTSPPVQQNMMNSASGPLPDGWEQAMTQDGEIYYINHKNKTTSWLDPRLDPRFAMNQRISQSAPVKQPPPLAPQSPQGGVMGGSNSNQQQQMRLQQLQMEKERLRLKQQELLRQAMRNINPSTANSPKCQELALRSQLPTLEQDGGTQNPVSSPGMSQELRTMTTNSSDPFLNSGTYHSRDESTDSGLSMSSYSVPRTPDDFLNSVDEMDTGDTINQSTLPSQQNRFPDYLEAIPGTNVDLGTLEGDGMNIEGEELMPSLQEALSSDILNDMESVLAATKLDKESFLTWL

No constants are given. Whether binding was seen depends on the method and setting. In cells and extracts the contact can be indirect. Some binding calls cover weakened binding; strength is not graded here.

B1: Desmoglein-3 (protein, UniProt P32926 50-999)
chain: EWVKFAKPCREGEDNSKRNPIAKITSDYQATQKITYRISGVGIDQPPFGIFVVDKNTGDINITAIVDREETPSFLITCRALNAQGLDVEKPLILTVKILDINDNPPVFSQQIFMGEIEENSASNSLVMILNATDADEPNHLNSKIAFKIVSQEPAGTPMFLLSRNTGEVRTLTNSLDREQASSYRLVVSGADKDGEGLSTQCECNIKVKDVNDNFPMFRDSQYSARIEENILSSELLRFQVTDLDEEYTDNWLAVYFFTSGNEGNWFEIQTDPRTNEGILKVVKALDYEQLQSVKLSIAVKNKAEFHQSVISRYRVQSTPVTIQVINVREGIAFRPASKTFTVQKGISSKKLVDYILGTYQAIDEDTNKAASNVKYVMGRNDGGYLMIDSKTAEIKFVKNMNRDSTFIVNKTITAEVLAIDEYTGKTSTGTVYVRVPDFNDNCPTAVLEKDAVCSSSPSVVVSARTLNNRYTGPYTFALEDQPVKLPAVWSITTLNATSALLRAQEQIPPGVYHISLVLTDSQNNRCEMPRSLTLEVCQCDNRGICGTSYPTTSPGTRYGRPHSGRLGPAAIGLLLLGLLLLLLAPLLLLTCDCGAGSTGGVTGGFIPVPDGSEGTIHQWGIEGAHPEDKEITNICVPPVTANGADFMESSEVCTNTYARGTAVEGTSGMEMTTKLGAATESGGAAGFATGTVSGAASGFGAATGVGICSSGQSGTMRTRHSTGGTNKDYADGAISMNFLDSYFSQKAFACAEEDDGQEANDCLLIYDNEGADATGSPVGSVGCCSFIADDLDDSFLDSLGPKFKKLAEISLGVDGEGKEVQPPSKDSGYGIESCGHPIEVQQTGFVKCQTLSGSQGASALSTSGSVQPAVSIPDPLQHGNYLVTETYSASGSLVQPSTAGFDPLLTQNVIVTERVICPISSVPGNLAGPTQLRGSHTMLCTEDPCSRLI
Turning to B1, the binding entry is recorded as “binds”.
